According to PMC10016340 (Chemical Science, 2023):

Assays:
αSOs-Alexa488 = αSOs-Alexa488 (Homo sapiens, UniProt P37840); experiment: FIDA effect of lead compounds on free αSOs; format: binding; settings: 150 nM αSO, 5 μM compound; 13% without compound
αSO = αSO (Homo sapiens, UniProt P37840); format: binding; settings: 2 mM compound, 1 μg mL^−1 αSOs
[1] = target: αSOs-Alexa488 binding to DOPG liposomes (Homo sapiens, UniProt P37840); experiment: FIDA αSO-vesicle binding inhibition assay; settings: 5 μM compound, 50 μM DOPG; αSO-vesicle complex without compound ∼60 nm

Percentage of α-syn monomers in αSO sample (αSOs-Alexa488): 18% | αSO binding signal in sandwich ELISA vs positive control (αSO): to a smaller extent | Apparent size (Rh) of αSOs-Alexa488 in the presence of DOPG liposomes and compound [1]: ~10 nm
Compound: CC(C)(C)CC(C)(C)c1ccc(OCCOCC[N+](C)(C)Cc2ccccc2)cc1 [A3, Benzethonium]
